At least one structure is not confirmed: it was looked up by name or label, or the drawing left a doubt.
Tested on: melanoma cells
Experiment: Apoptosis assay (Propidium Iodide staining)
Type: cell-based, human
Conditions: 10 or 20 μM Dacarbazine, 48 hours, in HER3 knock-down cells vs GL-2 control cells (Colo 829, MM-358, Mel Gerlach)

With `CN(C)/N=N/c1[nH]cnc1C(N)=O` [Dacarbazine] the Dacarbazine-induced apoptosis was “significantly increased”.
